Results taken from PMC6199744, “Development of Chemical Proteomics for the Folateome and Analysis of the Kinetoplastid Folateome” (ACS Infectious Diseases, 2018).
Several values for one entry are separate records, joined by “and”; a condition that tells them apart may be missing. Equal values may be shown once. Read-outs that look alike come from different tables or passages of the source. Further values from the same series stand in other lists.

Test system: L. major lysate proteins
Assay: Multitargeted bead mixture chemoproteomics, single concentration competition, proteome-wide
Format: binding

Nc1nc2c(c(=O)[nH]1)N(C=O)C(CNc1ccc(C(=O)N[C@@H](CCC(=O)O)C(=O)O)cc1)CN2 (stereo partly drawn) [LEU, leucovorin]
fold change: 1.02 and 1.03 and 1.07 and 0.86
fold change (protein LINJ.01.0790 […] 4A, PUTATIVE, vehicle control = 1): 1.15
fold change (protein LINJ.03.0940 HYPOTHETICAL PROTEIN, CONSERVED, vehicle control = 1): 0.82
fold change (protein LINJ.05.0070 DYNEIN LIGHT CHAIN, PUTATIVE, vehicle control = 1): 1.07
fold change (protein LINJ.07.0210 CYTOCHROME C1, HEME PROTEIN, MITOCHONDRIAL PRECURSOR, PUTATIVE, vehicle control = 1): 0.94
fold change (protein LINJ.09.0030 HYPOTHETICAL PROTEIN, CONSERVED, vehicle control = 1): 0.99
fold change (protein LINJ.09.1130 EUKARYOTIC TRANSLATION INITIATION FACTOR 2 SUBUNIT, PUTATIVE, vehicle control = 1): 0.88
fold change (protein LINJ.13.1460 ALPHA TUBULIN, vehicle control = 1): 0.95
fold change (protein LINJ.15.0090 HEAT SHOCK PROTEIN HSLVU, ATPASE SUBUNIT HSLU, PUTATIVE, vehicle control = 1): 1
fold change (protein LINJ.19.0140 PROTEIN KINASE, PUTATIVE,MITOGEN-ACTIVATED PROTEIN KINASE, PUTATIVE, vehicle control = 1): 0.82
fold change (protein LINJ.19.0300 RNA BINDING PROTEIN, vehicle control = 1): 1.08
fold change (protein LINJ.21.0900 HY[…], CONSERVED, vehicle control = 1): 1.01
fold change (protein LINJ.21.1790 40S RIBOSOMAL PROTEIN S11, PUTATIVE, vehicle control = 1): 1.08
fold change (protein LINJ.25.1460 GTP-BINDING PROTEIN, PUTATIVE, vehicle control = 1): 1.05
fold change (protein LINJ.25.2170 HYPOTHETICAL PROTEIN, CONSERVED, vehicle control = 1): 0.81
fold change (protein LINJ.26.0840 40S RIBOSOMAL PROTEIN S16, PUTATIVE, vehicle control = 1): 1.04
fold change (protein LINJ.26.1080 HYPOTHETICAL PROTEIN, CONSERVED, vehicle control = 1): 0.94
fold change (protein LINJ.27.1150 T-COMPLEX PROTEIN 1, BETA SUBUNIT, PUTATIVE, vehicle control = 1): 1.03
fold change (protein LINJ.28.1310 GLUCOSE-REGULATED PROTEIN 78, PUTATIVE, vehicle control = 1): 1.08
fold change (protein LINJ.29.0110 HYPOTHETICAL PROTEIN, CONSERVED, vehicle control = 1): 0.9
fold change (protein LINJ.29.0770 P[…] SIGNAL TYPE 2 RECEPTOR, PUTATIVE, vehicle control = 1): 1.05
fold change (protein LINJ.32.2960 […]-ATP-ASE SUBUNIT, PUTATIVE, vehicle control = 1): 0.78
fold change (protein LINJ.32.3230 PROTEIN PHOSPHATASE 2A CATALYTIC SUBUNIT, PUTATIVE, vehicle control = 1): 1.05
fold change (protein LINJ.33.0350 HEAT SHOCK PROTEIN 83-1, vehicle control = 1): 1.06
fold change (protein LINJ.36.2140 CHAPERONIN HSP60, MIT[…], vehicle control = 1): 1.12
fold change (protein LINJ.36.7350 CYTOCHROME C OXIDASE SUBUNIT I, vehicle control = 1): 0.99
fold change (protein LMJF.02.0450 VOLTAGE-DEPENDENT ANION-SELECTIVE CHANNEL, PUTATIVE, vehicle control = 1): 1.04
fold change (protein LMJF.02.0460 HY[…], CONSERVED, vehicle control = 1): 0.97
fold change (protein LMJF.03.0630 HY[…], CONSERVED, vehicle control = 1): 1.07
fold change (protein LMJF.05.0030 RAS-LIKE SMALL GTPASES, PUTATIVE, vehicle control = 1): 0.96
fold change (protein LMJF.06.0140 PROTEASOME BETA 6 SUBUNIT, PUTATIVE, vehicle control = 1): 0.96
fold change (protein LMJF.06.0880 ACYL-COENZYME A DEHYDROGENASE, PUTATIVE, vehicle control = 1): 0.9
fold change (protein LMJF.07.0270 […] DEACETYLASE-LIKE PROTEIN, vehicle control = 1): 0.97
fold change (protein LMJF.07.0340 ATP-DEPENDENT DEAD/H RNA HELICASE, PUTATIVE, vehicle control = 1): 1.05
fold change (protein LMJF.07.0640 HY[…], CONSERVED, vehicle control = 1): 1.08
fold change (protein LMJF.07.1050 CATION-TRANSPORTING ATPASE, PUTATIVE, vehicle control = 1): 0.9
fold change (protein LMJF.08.1110 STRESS-INDUCED PROTEIN STI1, vehicle control = 1): 1.07
fold change (protein LMJF.09.0970 […]-1 GAMMA, vehicle control = 1): 1.11
fold change (protein LMJF.10.1010 NUCLEOSIDE PHOSPHORYLASE-LIKE PROTEIN, vehicle control = 1): 1.13
fold change vs vehicle control (protein LMJF.10.1240 HYPOTHETICAL PROTEIN, CONSERVED): 0.93
fold change (protein LMJF.11.0220 PTERIN-4-ALPHA-CARBINOLAMINE DEHYDRATASE, PUTATIVE, vehicle control = 1): 1.07
fold change (protein LMJF.11.0240 […] 7 SUBUNIT, PUTATIVE, vehicle control = 1): 0.98
fold change (protein LMJF.11.0350 14-3-3 PROTEIN, PUTATIVE, vehicle control = 1): 1.05
fold change (protein LMJF.11.0550 NUCLEOBASE TRANSPORTER, vehicle control = 1): 1.06
fold change (protein LMJF.11.1000 PYRUVATE PHOSPHATE DIKINASE, PUTATIVE, vehicle control = 1): 1.19
fold change (protein LMJF.12.0280 ORNITHINE DECARBOXYLASE, PUTATIVE, vehicle control = 1): 0.85
fold change (protein LMJF.12.0670 […] OXIDASE SUBUNIT IV, vehicle control = 1): 1.07
fold change (protein LMJF.12.1130 NADH:FLAVIN OXIDOREDUCTASE/NADH OXIDASE, PUTATIVE, vehicle control = 1): 1.03
fold change (protein LMJF.12.1270 ARGININE N-METHYLTRANSFERASE-LIKE PROTEIN, vehicle control = 1): 0.92
fold change vs vehicle control (protein LMJF.13.0450 HYPOTHETICAL PROTEIN, CONSERVED): 0.93
fold change (protein LMJF.13.0570 40S RIBOSOMAL PROTEIN S12, PUTATIVE, vehicle control = 1): 1.15
fold change (protein LMJF.13.0870 MIT[…] ALPHA SUBUNIT, PUTATIVE, vehicle control = 1): 0.96
fold change (protein LMJF.13.1190 ADENYLOSUCCINATE SYNTHETASE, PUTATIVE, vehicle control = 1): 0.95
fold change (protein LMJF.13.1660 CHAPERONIN TCP20, PUTATIVE, vehicle control = 1): 0.99
fold change (protein LMJF.14.0190 HY[…], CONSERVED, vehicle control = 1): 1.43
fold change (protein LMJF.14.0460 CYSTATHIONINE BETA-LYASE-LIKE PROTEIN, vehicle control = 1): 0.93
fold change (protein LMJF.14.0650 FATTY ACID ELONGASE, PUTATIVE, vehicle control = 1): 0.96
fold change (protein LMJF.15.0230 LYSYL-TRNA SYNTHETASE, PUTATIVE, vehicle control = 1): 1.04
fold change (protein LMJF.15.1160 TR[…], vehicle control = 1): 1.06
fold change (protein LMJF.15.1440 GLUTAMINYL-TRNA SYNTHETASE, PUTATIVE, vehicle control = 1): 1.03
fold change (protein LMJF.16.0960 HY[…], CONSERVED (methyltransferase domain containing protein, putative), vehicle control = 1): 1.11
fold change vs vehicle control (protein LMJF.16.1427 PARAFLAGELLAR ROD PROTEIN 2C): 0.94
fold change (protein LMJF.17.0980 HYPOTHETICAL PROTEIN, CONSERVED (Mak10 subunit, NatC N(alpha)-terminal acetyltransferase, putative), vehicle control = 1): 0.99
fold change (protein LMJF.18.0450 SERINE CARBOXYPEPTIDASE (CBP1), PUTATIVE, vehicle control = 1): 0.93
fold change (protein LMJF.18.0510 ACONITASE, PUTATIVE, vehicle control = 1): 1.09
fold change (protein LMJF.18.0740 ELONGATION FACTOR TU, PUTATIVE, vehicle control = 1): 0.98
